Literature values in patent US9757337B2, “Multicompartmental lipid nanoparticles” (CENTRE NATIONAL DE LA RECHERCHE SCIENTIFIQUE—CNRS, priority 2013, dated 2017).
Converted amounts (≈) assume the structure as drawn.

Settings: cited from earlier work

## O=c1c(O)c(-c2ccc(O)c(O)c2)oc2cc(O)cc(O)c12 [quercetin]
  solubility in water: ~0.4 µg/mL (≈ 1.32 µM)
